Patent publication US9975911B2, “Antibacterial compounds and biological applications thereof” (LABORATOIRE BIODIM, priority 2012, dated 2018)
Some results were stated once for a whole list of compounds, not compound by compound. Some compounds share one range, which may span the group rather than tell each member.

Amino acid sequences for entries named in this document (tags omitted).
UniProt P63224, whole entry: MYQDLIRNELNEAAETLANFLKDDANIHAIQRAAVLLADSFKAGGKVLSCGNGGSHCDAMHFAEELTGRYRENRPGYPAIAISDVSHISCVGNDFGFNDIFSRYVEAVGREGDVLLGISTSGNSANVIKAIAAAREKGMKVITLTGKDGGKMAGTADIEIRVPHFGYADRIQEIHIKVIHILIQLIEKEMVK

Molecular target: GmhA of E. coli (Escherichia coli, UniProt P63224)
Assay: Inhibition of the enzymatic activity of GmhA (luminescent assay)
Type: biochemical
Conditions: read-out: IC50 on GmhA of E. coli; lower bound in nM, upper bound in μM
Experimental: Inhibition of the Enzymatic Activity of GmhA (Luminescent Assay):
The assay buffer “AB” contained 50 mM Hepes pH7.5, 1 mM MnCl2, 25 mM KCl, 0.012% Triton-X100, 1 mM dithiothreitol (DTT) and 0.1 μM Myelin basic protein (MBP). The following components were added in a white polystyrene Costar plate up to a final volume of 30 μL: 10 μL inhibitor dissolved in DMSO/water 50/50, and 20 μL GmhA of E. coli in AB. After 30 min of pre-incubation at room temperature, 30 μL of Substrates mix in AB were added in each well to a final volume of 60 μL. This reaction mixture was then composed of 2 nM GmhA, 3 μM sedoheptulose-7-phosphate (Sigma), 3 μM ATP (Sigma) and 50 nM HldE of E. coli in assay buffer. After 30 minutes of incubation at room temperature, 100 μL of the revelation mix were added to a final volume of 160 μL, including the following constituents at the respective final concentrations: 10000 light units/mL luciferase (Sigma), 20 μM D-luciferin (Sigma), 100 μM N-acetylcysteamine (Aldrich). Luminescence intensity was immediately measured on Luminoskan (Thermofisher) and converted into inhibition percentages. For IC50 determinations, the inhibitor was tested at 6 to 10 different concentrations, and the related inhibitions were fitted to a classical Langmuir equilibrium model using XLFIT (IDBS).

Structure (SMILES) | IC50 [nM]
O=CN(O)C[C@@H](O)[C@H](O)[C@H](O)CCP(=O)(O)O [Example 11, (3R,4R,5R)-3,4,5-trihydroxy-6-(N-hydroxyformamido)hexylphosphonic acid] | 500 to 100000
O=CN(O)C[C@@H](O)[C@@H](O)[C@H](O)CCP(=O)(O)O [Example 10] | 500 to 100000
